The values that follow are results of earlier work, collected in patent US8314084B2, “Device and methods for sequential, regional delivery of multiple cytotoxic agents and directed assembly of wound repair tissues” (priority 2002, dated 2012).

As for `CC(=O)O[C@H]1C(=O)[C@@]2(C)[C@H]([C@H](OC(=O)c3ccccc3)[C@]3(O)C[C@H](OC(=O)[C@H](O)[C@@H](NC(=O)c4ccccc4)c4ccccc4)C(C)=C1C3(C)C)[C@]1(OC(C)=O)CO[C@@H]1C[C@@H]2O` [paclitaxel, Paclitaxel], the aqueous solubility entry is “poor aqueous solubility”.
